# From article PMC10115834
# Protein sequences, listed by entry. Tags and fused reporters are not part of them.
# UniProt P35222: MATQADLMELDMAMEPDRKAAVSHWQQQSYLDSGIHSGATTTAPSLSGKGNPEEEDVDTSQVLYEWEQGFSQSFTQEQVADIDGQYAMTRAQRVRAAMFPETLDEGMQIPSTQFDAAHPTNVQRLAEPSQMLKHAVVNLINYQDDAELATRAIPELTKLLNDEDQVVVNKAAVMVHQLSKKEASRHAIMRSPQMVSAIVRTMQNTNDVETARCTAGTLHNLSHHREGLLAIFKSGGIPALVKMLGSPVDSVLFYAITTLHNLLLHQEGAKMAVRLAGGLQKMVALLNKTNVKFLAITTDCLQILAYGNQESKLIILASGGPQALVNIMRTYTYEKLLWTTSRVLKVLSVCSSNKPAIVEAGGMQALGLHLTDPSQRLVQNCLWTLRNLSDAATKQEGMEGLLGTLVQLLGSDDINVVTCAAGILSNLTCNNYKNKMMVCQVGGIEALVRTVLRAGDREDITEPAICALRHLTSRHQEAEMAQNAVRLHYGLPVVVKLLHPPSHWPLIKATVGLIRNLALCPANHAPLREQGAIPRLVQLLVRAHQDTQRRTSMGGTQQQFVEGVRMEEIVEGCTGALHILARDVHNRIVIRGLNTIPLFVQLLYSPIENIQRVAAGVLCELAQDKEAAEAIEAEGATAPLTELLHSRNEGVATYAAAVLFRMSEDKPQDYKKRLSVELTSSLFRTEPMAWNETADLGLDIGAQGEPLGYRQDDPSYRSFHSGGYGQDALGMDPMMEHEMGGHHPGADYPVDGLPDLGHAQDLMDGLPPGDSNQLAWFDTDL
# UniProt Q9Y265: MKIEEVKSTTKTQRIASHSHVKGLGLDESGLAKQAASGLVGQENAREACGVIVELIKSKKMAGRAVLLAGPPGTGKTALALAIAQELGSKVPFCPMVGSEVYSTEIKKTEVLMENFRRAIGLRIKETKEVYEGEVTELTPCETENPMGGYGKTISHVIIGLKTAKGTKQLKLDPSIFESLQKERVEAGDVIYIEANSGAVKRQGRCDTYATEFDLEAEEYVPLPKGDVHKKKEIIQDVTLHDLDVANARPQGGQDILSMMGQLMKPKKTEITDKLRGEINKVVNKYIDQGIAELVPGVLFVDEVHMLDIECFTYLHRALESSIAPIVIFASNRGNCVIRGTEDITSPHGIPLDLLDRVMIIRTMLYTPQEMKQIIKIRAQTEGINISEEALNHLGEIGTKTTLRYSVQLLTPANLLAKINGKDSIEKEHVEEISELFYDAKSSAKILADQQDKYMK
# Results are given in words; binding and its absence hold for the method and conditions named. In cells and extracts the contact can be indirect. Some binding calls cover weakened binding; strength is not graded here.
# Biological target: β-catenin1 (CTNNB1) (UniProt P35222)
# Assay: co-IP; lysate of transfected cells (50 mM Tris-HCl pH 7.4, 150 mM NaCl, 10% glycerol, 1 mM EDTA, 0.5% NP-40); antibody and protein A/G beads for 2 h, three washes, immunoblot; RUVBL1 or CTNNB1 precipitated with anti-his or anti-Flag
substance,measurement,value
RuvB-like protein 1 (RUVBL1) (from UniProt Q9Y265 1-456),binding,binds
